Experimental data published in PMC4519132.
Where two headings read alike, the source gives them in different places. These are yes or no findings as the source states them, for the method shown. For some assays here: In cells and extracts the contact can be indirect. Some results given as binding are weak or reduced against the parent protein; the word gives no strength.

The chains behind the UniProt entries cited, without tags or fusion partners.
UniProt Q9VT57: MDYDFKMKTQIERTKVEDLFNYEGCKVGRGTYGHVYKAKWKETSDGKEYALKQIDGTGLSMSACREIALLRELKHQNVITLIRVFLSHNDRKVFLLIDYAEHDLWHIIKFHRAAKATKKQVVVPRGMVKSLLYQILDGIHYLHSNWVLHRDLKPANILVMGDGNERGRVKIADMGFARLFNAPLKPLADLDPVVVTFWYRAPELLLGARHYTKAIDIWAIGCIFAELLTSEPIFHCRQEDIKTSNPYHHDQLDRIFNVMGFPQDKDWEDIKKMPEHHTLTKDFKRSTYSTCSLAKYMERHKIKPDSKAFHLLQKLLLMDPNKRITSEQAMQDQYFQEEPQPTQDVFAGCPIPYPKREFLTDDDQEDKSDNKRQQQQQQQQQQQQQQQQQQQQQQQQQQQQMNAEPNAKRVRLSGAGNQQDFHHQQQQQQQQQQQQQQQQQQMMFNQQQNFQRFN

Key:
[1] = biological target: T1, USP-AF1 (1-100AA), two-hybrid bait (Drosophila) (UniProt P20153); test: two-hybrid; EcR/USP fragments in pGBKT7 (bait), Drosophila Med14/CDK8 in pGADT7 (prey), in yeast cells; the ligand 20E not present
T1 sequence: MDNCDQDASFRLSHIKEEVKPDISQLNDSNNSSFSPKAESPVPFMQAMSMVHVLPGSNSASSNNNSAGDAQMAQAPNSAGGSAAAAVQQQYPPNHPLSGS

[2] = biological target: T2, USP-AF2 (206-509AA), two-hybrid bait (Drosophila) (UniProt P20153); test: as above
T2 sequence: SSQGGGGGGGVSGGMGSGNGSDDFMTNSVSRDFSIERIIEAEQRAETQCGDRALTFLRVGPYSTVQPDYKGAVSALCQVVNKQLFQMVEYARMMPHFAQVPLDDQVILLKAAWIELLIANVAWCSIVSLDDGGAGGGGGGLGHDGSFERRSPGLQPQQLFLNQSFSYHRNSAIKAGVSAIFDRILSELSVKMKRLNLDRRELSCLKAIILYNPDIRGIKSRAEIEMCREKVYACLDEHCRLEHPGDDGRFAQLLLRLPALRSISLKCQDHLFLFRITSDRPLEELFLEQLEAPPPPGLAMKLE

[3] = biological target: T3, Ecdysone Receptor, isoform B1 (EcR-B1) (Drosophila melanogaster (endogenous in white prepupae)) (UniProt P34021); test: co-IP; lysates of 30 white prepupae (w1118; for USP with EcR-B1 also cdk8K185 and cycCY5 mutants); 5 ug primary antibody on Magnetic Protein G beads; lysis buffer 150 mM NaCl, 50 mM Tris pH 8.0, 5 mM EDTA, 5 mM DTT, 0.5% NP-40; 12-16 hr at 4 C; Western blot
T3 sequence: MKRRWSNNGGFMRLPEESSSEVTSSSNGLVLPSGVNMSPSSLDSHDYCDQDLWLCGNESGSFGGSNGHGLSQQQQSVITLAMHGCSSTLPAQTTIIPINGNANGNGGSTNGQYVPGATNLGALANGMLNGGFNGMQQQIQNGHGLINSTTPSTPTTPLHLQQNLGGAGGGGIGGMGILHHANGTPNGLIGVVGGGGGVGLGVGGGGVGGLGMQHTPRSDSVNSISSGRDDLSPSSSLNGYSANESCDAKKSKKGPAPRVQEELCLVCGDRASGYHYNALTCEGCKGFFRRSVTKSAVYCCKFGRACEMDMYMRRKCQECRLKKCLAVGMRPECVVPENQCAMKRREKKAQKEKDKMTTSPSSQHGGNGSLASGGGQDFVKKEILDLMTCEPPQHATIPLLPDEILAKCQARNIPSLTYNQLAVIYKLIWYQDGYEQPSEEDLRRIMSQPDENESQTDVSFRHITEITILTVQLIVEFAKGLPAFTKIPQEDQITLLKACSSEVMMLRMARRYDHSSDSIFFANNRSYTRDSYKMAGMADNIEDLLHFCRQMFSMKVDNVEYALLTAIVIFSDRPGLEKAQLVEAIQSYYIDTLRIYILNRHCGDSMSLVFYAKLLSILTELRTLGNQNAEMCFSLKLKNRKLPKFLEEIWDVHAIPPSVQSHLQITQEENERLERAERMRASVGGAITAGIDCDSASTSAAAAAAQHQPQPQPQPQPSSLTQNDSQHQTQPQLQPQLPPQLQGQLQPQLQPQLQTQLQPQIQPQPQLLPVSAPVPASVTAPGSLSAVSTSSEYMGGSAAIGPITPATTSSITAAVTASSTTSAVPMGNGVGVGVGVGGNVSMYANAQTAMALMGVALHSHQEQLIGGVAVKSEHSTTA

[4] = biological target: T4, Ultraspiracle (USP) (Drosophila melanogaster (endogenous in white prepupae)) (UniProt P20153); test: as above
T4 sequence: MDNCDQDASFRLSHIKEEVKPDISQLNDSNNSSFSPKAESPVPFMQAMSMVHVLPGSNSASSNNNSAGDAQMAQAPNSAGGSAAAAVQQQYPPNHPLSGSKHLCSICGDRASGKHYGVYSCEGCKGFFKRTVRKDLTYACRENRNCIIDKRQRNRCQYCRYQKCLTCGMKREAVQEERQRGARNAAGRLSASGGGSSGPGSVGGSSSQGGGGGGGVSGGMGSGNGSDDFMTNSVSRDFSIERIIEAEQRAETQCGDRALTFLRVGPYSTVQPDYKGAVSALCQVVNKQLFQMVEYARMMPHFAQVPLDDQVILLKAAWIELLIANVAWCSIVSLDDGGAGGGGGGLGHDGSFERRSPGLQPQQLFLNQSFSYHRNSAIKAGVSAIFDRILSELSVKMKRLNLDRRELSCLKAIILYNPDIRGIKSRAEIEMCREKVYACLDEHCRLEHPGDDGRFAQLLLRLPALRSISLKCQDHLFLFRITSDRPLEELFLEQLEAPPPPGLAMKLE

[5] = biological target: T4, Ultraspiracle (USP) (Drosophila melanogaster (endogenous in white prepupae)); test: as above; remark: listed apart in the source
[6] = biological target: T3, Ecdysone Receptor, isoform B1 (EcR-B1) (Drosophila melanogaster (endogenous in white prepupae)); test: as above; remark: listed apart in the source
[7] = biological target: T1, USP-AF1 (1-100AA), two-hybrid bait (Drosophila); test: two-hybrid; EcR/USP fragments in pGBKT7 (bait), Drosophila Med14/CDK8 in pGADT7 (prey), in yeast cells; the ligand 20E not present; remark: listed apart in the source
[8] = biological target: T2, USP-AF2 (206-509AA), two-hybrid bait (Drosophila); test: as above; remark: listed apart in the source

In the case of “CDK8, two-hybrid prey (from UniProt Q9VT57 1-454) (enzyme)”, the binding [1] is reported as “no binding” and the binding [2] is reported as “no binding”.

In the case of “cyclin-dependent kinase 8 (CDK8) (from UniProt Q9VT57 1-454) (enzyme)”, the binding [3] is reported as “binds” and the binding [4] is reported as “binds”.

B1: Ecdysone Receptor, isoform B1 (EcR-B1) (receptor, UniProt P34021 1-878)
chain: MKRRWSNNGGFMRLPEESSSEVTSSSNGLVLPSGVNMSPSSLDSHDYCDQDLWLCGNESGSFGGSNGHGLSQQQQSVITLAMHGCSSTLPAQTTIIPINGNANGNGGSTNGQYVPGATNLGALANGMLNGGFNGMQQQIQNGHGLINSTTPSTPTTPLHLQQNLGGAGGGGIGGMGILHHANGTPNGLIGVVGGGGGVGLGVGGGGVGGLGMQHTPRSDSVNSISSGRDDLSPSSSLNGYSANESCDAKKSKKGPAPRVQEELCLVCGDRASGYHYNALTCEGCKGFFRRSVTKSAVYCCKFGRACEMDMYMRRKCQECRLKKCLAVGMRPECVVPENQCAMKRREKKAQKEKDKMTTSPSSQHGGNGSLASGGGQDFVKKEILDLMTCEPPQHATIPLLPDEILAKCQARNIPSLTYNQLAVIYKLIWYQDGYEQPSEEDLRRIMSQPDENESQTDVSFRHITEITILTVQLIVEFAKGLPAFTKIPQEDQITLLKACSSEVMMLRMARRYDHSSDSIFFANNRSYTRDSYKMAGMADNIEDLLHFCRQMFSMKVDNVEYALLTAIVIFSDRPGLEKAQLVEAIQSYYIDTLRIYILNRHCGDSMSLVFYAKLLSILTELRTLGNQNAEMCFSLKLKNRKLPKFLEEIWDVHAIPPSVQSHLQITQEENERLERAERMRASVGGAITAGIDCDSASTSAAAAAAQHQPQPQPQPQPSSLTQNDSQHQTQPQLQPQLPPQLQGQLQPQLQPQLQTQLQPQIQPQPQLLPVSAPVPASVTAPGSLSAVSTSSEYMGGSAAIGPITPATTSSITAAVTASSTTSAVPMGNGVGVGVGVGGNVSMYANAQTAMALMGVALHSHQEQLIGGVAVKSEHSTTA
B1 was tested, and the binding [5] was “binds”.

B2: Ultraspiracle (USP) (receptor, UniProt P20153 1-508)
chain: MDNCDQDASFRLSHIKEEVKPDISQLNDSNNSSFSPKAESPVPFMQAMSMVHVLPGSNSASSNNNSAGDAQMAQAPNSAGGSAAAAVQQQYPPNHPLSGSKHLCSICGDRASGKHYGVYSCEGCKGFFKRTVRKDLTYACRENRNCIIDKRQRNRCQYCRYQKCLTCGMKREAVQEERQRGARNAAGRLSASGGGSSGPGSVGGSSSQGGGGGGGVSGGMGSGNGSDDFMTNSVSRDFSIERIIEAEQRAETQCGDRALTFLRVGPYSTVQPDYKGAVSALCQVVNKQLFQMVEYARMMPHFAQVPLDDQVILLKAAWIELLIANVAWCSIVSLDDGGAGGGGGGLGHDGSFERRSPGLQPQQLFLNQSFSYHRNSAIKAGVSAIFDRILSELSVKMKRLNLDRRELSCLKAIILYNPDIRGIKSRAEIEMCREKVYACLDEHCRLEHPGDDGRFAQLLLRLPALRSISLKCQDHLFLFRITSDRPLEELFLEQLEAPPPPGLAMKLE
B2 was tested, and the binding [6] was “binds”.

B3: Med14 (159-320AA), fragment that contains the LXXLL motif, two-hybrid prey (domain or fragment, UniProt Q9W0P8 159-320)
chain: IRERIVPADAITPAEKRQTLLRLNQVIQHRLVTGKLLPQMREFRIRNGRVTFEVKHEFSVSLTVMGDNPTVPWRLLDIDVLVEDKETGDGKSLVHPLQVNYIHQLIQARLVENPNALSEVYNCLHYFCQSLQLEVLYTQTLRLNYERLDDNNITVEEYVPGV
In the case of B3, the binding [7] is reported as “no binding” and the binding [8] is reported as “no binding”.
